Results reported in PMC12418683.

Chains of the proteins cited; added tags and fusions are not shown.
UniProt Q9Y265: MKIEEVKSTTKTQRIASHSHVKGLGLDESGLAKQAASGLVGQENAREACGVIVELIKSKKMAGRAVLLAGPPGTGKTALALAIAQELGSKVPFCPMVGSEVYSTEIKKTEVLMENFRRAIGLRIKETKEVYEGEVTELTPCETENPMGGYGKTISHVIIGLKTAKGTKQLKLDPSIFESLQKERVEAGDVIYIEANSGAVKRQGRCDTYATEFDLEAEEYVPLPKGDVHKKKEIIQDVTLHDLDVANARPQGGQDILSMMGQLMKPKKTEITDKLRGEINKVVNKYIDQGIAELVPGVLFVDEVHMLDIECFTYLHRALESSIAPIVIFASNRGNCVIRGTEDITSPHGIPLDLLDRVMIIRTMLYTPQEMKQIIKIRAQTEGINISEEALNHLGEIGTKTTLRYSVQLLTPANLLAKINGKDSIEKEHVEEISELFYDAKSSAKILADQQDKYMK
UniProt P62258: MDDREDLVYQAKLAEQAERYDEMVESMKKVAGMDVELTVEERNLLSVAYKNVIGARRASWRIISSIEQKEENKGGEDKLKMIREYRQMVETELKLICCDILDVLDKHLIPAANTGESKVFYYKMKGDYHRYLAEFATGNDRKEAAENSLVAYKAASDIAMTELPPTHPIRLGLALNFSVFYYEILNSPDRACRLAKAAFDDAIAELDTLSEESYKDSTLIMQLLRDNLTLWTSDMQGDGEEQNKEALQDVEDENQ
UniProt P67870: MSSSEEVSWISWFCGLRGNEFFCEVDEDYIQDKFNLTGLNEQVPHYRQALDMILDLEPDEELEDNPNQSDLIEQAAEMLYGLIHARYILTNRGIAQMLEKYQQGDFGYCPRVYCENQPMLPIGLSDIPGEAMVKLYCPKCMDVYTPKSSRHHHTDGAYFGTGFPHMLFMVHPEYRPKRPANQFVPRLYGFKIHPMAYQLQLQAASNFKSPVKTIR
UniProt Q96A65: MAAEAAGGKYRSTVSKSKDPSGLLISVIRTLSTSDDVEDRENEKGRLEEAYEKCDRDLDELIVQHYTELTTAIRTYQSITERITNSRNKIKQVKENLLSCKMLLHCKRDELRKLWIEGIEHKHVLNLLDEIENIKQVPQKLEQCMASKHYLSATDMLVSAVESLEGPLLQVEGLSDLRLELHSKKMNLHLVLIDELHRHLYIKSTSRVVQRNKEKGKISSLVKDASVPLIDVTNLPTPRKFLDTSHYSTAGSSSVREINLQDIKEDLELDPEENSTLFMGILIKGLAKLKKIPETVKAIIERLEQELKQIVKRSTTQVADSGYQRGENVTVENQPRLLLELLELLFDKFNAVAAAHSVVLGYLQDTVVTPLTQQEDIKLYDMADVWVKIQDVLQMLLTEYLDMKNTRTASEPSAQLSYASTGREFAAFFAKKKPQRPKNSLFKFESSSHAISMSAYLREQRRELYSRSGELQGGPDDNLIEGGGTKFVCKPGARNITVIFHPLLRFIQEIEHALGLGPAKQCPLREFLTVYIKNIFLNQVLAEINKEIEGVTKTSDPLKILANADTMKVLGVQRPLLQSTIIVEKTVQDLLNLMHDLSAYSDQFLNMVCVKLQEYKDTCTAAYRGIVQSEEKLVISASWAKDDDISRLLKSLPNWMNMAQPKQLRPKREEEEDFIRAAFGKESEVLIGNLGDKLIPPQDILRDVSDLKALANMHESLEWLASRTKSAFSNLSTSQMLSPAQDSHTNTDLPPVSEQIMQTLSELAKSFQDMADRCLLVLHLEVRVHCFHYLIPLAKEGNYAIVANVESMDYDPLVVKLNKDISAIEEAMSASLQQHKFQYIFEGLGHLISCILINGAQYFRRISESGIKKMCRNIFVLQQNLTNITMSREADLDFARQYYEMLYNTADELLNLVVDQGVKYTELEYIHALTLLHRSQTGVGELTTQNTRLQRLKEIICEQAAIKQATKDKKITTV
UniProt Q93008: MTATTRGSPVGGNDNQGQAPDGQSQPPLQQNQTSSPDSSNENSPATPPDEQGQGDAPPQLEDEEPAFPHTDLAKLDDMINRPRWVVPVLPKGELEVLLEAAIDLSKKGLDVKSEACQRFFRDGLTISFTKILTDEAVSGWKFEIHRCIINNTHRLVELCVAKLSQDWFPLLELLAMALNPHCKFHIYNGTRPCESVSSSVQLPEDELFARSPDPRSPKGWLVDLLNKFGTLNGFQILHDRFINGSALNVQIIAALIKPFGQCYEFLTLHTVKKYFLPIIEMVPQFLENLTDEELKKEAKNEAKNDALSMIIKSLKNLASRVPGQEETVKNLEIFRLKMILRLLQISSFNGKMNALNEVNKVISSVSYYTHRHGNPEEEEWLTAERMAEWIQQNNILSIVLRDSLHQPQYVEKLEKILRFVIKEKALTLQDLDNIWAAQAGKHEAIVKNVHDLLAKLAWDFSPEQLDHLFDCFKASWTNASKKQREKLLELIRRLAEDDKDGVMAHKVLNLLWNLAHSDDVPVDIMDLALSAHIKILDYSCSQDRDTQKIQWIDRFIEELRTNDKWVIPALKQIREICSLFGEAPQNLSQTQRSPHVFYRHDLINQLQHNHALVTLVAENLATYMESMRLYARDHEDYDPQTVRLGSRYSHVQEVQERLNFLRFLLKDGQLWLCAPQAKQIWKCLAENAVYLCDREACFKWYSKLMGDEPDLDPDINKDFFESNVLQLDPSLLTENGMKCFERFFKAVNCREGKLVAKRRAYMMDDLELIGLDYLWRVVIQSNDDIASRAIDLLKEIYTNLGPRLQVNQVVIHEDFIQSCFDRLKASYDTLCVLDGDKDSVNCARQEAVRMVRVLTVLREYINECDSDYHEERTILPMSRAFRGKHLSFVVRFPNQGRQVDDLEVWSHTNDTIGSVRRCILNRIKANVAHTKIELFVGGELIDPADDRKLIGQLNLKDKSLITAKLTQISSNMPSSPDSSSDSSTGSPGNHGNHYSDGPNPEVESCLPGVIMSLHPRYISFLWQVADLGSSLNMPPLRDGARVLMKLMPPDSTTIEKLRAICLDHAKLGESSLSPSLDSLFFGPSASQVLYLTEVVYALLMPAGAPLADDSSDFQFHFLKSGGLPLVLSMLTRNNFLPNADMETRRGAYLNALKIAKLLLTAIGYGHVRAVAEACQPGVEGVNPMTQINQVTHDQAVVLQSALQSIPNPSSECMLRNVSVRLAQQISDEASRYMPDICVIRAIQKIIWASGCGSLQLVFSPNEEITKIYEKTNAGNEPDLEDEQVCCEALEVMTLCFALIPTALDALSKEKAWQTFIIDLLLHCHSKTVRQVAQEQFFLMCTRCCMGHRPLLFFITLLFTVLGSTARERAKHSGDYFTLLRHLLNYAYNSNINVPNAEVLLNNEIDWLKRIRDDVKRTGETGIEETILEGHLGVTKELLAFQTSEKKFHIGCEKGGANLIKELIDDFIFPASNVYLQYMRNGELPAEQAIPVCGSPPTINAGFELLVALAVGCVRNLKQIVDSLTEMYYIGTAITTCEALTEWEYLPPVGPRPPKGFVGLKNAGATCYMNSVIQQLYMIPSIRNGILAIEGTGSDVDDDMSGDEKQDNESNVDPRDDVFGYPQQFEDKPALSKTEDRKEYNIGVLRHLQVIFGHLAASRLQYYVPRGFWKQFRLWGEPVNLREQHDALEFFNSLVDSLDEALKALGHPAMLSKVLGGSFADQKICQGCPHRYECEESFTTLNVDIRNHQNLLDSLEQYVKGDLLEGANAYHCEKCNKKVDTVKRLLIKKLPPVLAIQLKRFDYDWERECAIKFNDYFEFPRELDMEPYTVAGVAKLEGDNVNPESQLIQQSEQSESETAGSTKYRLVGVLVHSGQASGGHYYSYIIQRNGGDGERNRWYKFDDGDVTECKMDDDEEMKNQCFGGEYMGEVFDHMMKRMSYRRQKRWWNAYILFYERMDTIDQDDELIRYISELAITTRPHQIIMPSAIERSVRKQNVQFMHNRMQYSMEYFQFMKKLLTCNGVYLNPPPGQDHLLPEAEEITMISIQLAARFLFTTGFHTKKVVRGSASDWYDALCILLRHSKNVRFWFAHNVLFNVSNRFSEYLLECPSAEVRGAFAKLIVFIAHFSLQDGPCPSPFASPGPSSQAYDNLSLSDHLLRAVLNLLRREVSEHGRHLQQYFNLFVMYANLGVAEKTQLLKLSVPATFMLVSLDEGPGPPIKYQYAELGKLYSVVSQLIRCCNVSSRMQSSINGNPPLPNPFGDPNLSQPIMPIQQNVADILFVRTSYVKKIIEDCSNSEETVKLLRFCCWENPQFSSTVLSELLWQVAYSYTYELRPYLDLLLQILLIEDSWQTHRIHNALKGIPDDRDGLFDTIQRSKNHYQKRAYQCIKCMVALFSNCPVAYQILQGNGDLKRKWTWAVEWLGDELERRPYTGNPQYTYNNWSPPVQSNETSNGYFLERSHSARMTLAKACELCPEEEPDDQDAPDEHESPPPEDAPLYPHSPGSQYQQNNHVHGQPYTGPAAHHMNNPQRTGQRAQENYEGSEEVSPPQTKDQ
UniProt O60884: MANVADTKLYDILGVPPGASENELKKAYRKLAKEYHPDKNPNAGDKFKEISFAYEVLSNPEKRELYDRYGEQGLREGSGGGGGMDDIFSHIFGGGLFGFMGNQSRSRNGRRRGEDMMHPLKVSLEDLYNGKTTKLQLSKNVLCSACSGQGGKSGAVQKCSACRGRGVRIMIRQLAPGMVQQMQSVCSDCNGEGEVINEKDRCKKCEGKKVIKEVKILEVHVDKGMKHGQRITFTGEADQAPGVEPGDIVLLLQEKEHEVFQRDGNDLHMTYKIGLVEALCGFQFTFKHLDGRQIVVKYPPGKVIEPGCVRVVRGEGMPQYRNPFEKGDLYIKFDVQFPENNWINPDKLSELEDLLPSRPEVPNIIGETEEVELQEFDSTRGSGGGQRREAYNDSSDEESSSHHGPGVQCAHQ

B1: Polycomb Group Ring Finger 3 (protein, UniProt Q3KNV8 1-242)
chain: MLTRKIKLWDINAHITCRLCSGYLIDATTVTECLHTFCRSCLVKYLEENNTCPTCRIVIHQSHPLQYIGHDRTMQDIVYKLVPGLQEAEMRKQREFYHKLGMEVPGDIKGETCSAKQHLDSHRNGETKADDSSNKEAAEEKPEEDNDYHRSDEQVSICLECNSSKLRGLKRKWIRCSAQATVLHLKKFIAKKLNLSSFNELDILCNEEILGKDHTLKFVVVTRWRFKKAPLLLHYRPKMDLL
B2: YWHAG (protein, UniProt P61981 1-247)
chain: MVDREQLVQKARLAEQAERYDDMAAAMKNVTELNEPLSNEERNLLSVAYKNVVGARRSSWRVISSIEQKTSADGNEKKIEMVRAYREKIEKELEAVCQDVLSLLDNYLIKNCSETQYESKVFYLKMKGDYYRYLAEVATGEKRATVVESSEKAYSEAHEISKEHMQPTHPIRLGLALNYSVFYYEIQNAPEQACHLAKTAFDDAIAELDTLNEDSYKDSTLIMQLLRDNLTLWTSDQQDDDGGEGNN
B3: YWHAQ (protein, UniProt P27348 1-245)
chain: MEKTELIQKAKLAEQAERYDDMATCMKAVTEQGAELSNEERNLLSVAYKNVVGGRRSAWRVISSIEQKTDTSDKKLQLIKDYREKVESELRSICTTVLELLDKYLIANATNPESKVFYLKMKGDYFRYLAEVACGDDRKQTIDNSQGAYQEAFDISKKEMQPTHPIRLGLALNFSVFYYEILNNPELACTLAKTAFDEAIAELDTLNEDSYKDSTLIMQLLRDNLTLWTSDSAGEECDAAEGAEN

Each molecule was assayed against T1, AGBL5-eGFP (human) (UniProt Q8NDL9) (assay: affinity purification with mass spectrometry; GFP-Trap agarose beads (eGFP nanobody) on lysates of ARPE19 WT cells transiently expressing AGBL5-eGFP; on-bead digestion, LC-MS/MS (Orbitrap Fusion Lumos, DDA); control: cells transfected with pmaxGFP; 6 replicates of each; MaxLFQ, threshold log2 FC > …).
T1 sequence: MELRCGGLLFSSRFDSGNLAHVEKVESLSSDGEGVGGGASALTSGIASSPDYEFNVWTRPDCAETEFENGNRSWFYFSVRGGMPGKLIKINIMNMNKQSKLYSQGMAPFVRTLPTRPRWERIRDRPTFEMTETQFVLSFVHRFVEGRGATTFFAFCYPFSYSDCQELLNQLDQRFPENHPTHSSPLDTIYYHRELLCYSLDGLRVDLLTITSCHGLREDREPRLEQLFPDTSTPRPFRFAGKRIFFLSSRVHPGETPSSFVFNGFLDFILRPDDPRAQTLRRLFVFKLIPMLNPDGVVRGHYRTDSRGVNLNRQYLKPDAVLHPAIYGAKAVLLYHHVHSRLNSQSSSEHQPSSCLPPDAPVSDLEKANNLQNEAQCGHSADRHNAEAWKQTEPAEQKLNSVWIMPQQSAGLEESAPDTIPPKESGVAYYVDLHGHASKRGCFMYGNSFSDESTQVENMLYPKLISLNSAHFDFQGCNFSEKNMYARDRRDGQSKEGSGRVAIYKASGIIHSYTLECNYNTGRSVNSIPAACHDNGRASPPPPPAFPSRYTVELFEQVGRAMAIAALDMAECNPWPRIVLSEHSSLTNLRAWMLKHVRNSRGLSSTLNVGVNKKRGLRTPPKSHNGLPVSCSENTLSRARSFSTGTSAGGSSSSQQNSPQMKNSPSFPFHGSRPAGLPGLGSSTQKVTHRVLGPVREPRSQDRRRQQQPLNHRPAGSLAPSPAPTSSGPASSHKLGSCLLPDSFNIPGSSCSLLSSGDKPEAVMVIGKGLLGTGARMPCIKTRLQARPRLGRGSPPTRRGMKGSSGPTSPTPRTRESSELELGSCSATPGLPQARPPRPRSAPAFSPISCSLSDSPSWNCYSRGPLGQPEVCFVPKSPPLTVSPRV

binding, binds:
RUVBL1 (from UniProt Q9Y265 1-456), YWHAE (from UniProt P62258 1-255), SQSTM1 (from UniProt Q13501 1-440), SLIRP (human (endogenous in ARPE19)), CSNK2B (from UniProt P67870 1-215), exocyst complex component 4 (from UniProt Q96A65 1-974), ubiquitin specific peptidase 9 X-linked (from UniProt Q93008 1-2554) (enzyme), DNAJA2 (from UniProt O60884 1-412), B1, B2, B3

These are yes or no findings as the source states them, for the method shown. In cells and extracts the contact can be indirect. These calls come from enrichment with a bait or labelling near it, and not all partners need be listed. Where a sequence is shown, tags or fusion partners need not be part of it.
